{"sequences": {"note": "Protein sequences, listed by entry. Tags and fused reporters are not part of them.", "UniProt P37231, whole entry": "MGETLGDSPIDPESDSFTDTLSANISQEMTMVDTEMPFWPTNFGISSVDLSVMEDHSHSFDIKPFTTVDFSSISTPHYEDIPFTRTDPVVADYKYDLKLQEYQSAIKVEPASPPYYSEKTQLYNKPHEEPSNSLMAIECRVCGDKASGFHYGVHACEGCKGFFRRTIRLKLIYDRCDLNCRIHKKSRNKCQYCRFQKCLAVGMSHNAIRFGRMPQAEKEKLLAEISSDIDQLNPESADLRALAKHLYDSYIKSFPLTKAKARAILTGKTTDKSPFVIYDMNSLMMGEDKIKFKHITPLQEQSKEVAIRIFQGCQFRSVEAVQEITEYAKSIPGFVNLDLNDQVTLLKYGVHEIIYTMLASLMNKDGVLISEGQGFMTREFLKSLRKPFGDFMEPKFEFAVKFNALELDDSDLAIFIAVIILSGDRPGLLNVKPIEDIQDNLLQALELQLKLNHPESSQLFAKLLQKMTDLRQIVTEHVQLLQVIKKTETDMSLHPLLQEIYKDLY"}, "source": "PubChem BioAssay (EPA / NIEHS)", "key": {"[1]": {"test": "ACEA_ER_AUC_viability: ACEA Biosciences xCELLigence Real-Time Cell Analysis on Estrogen Receptor Agonism for Viability (AID 2283782);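 further: continuous compound exposure with impedance area under curve over 80 h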", "protocol": "ACEA_ER is a cell-based, single-readout assay that uses T47D, a human breast cell line, with measurements taken at 80 hours after chemical dosing in a 96-well plate, although TO2 (mc0.srcf) used a 384-well plate. Differences in plate size can be ignored given data normalization.ACEA_ER_AUC_viability is one of two assay component(s) measured or calculated from the ACEA_ER assay. It is designed to make measurements of real-time cell-growth kinetics, a form of growth reporter, as detected with electrical impedance signals by Real-Time Cell Electrode Sensor (RT-CES) technology.Data from the assay component ACEA_ER_AUC_viability was analyzed in the positive analysis fitting direction relative to DMSO as the negative control and baseline of activity. Using a type of growth reporter, loss-of-signal activity can be used to understand changes in the viability. Furthermore, this assay endpoint can be referred to as a secondary readout, because this assay has produced multiple assay endpoints where this one serves a viability function. […]\nThe xCELLigence system Multi-E-Plate stations were used to measure the time-dependent response to chemicals. […] Cellular responses were then recorded once every 5 min for the first 5 h, and once every hour for an additional 100 h."}, "[2]": {"test": "ATG_GAL4_TRANS: Attagene TRANS-FACTORIAL HepG2 Assay for GAL4 (Internal Marker) (AID 2282976)", "details": "HepG2 Attagene TRANS GAL4 internal marker reporter", "method_in_brief": "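RT-PCR/capillary electrophoresis readout of reporter mRNA. HepG2, transient MRTU transfection (GAL4-UAS reporters), 24 h compound exposure. Background-control endpoint, positive direction vs DMSO baseline.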"}, "[3]": {"biological_target": "Peroxisome proliferator-activated receptor gamma (Homo sapiens) (UniProt P37231)", "test": "ATG_PPARg_TRANS: Attagene TRANS-FACTORIAL HepG2 Assay for human Peroxisome Proliferator-activated Receptor-gamma (PPARg) (AID 2283007)", "protocol": "ATG_TRANS is a cell-based, multiplexed-readout assay that uses HepG2, a human liver cell line, with measurements taken at 24 hours after chemical dosing in a 24-well plate.ATG_PPARg_TRANS is one of 30 assay component(s) measured or calculated from the ATG_TRANS assay. It is designed to make measurements of mRNA induction, a form of inducible reporter, as detected with fluorescence intensity signals by Reverse transcription polymerase chain reaction (RT-PCR) and Capillary electrophoresis technology.Data from the assay component ATG_PPARg_TRANS was analyzed into 1 assay endpoint. This assay endpoint, ATG_PPARg_TRANS, was analyzed in the positive analysis fitting direction relative to DMSO as the negative control and baseline of activity. […] Furthermore, this assay endpoint can be referred to as a primary readout, because this assay has produced multiple assay endpoints where this one serves a reporter gene function. […]\nHuman liver HepG2 cells are transiently transfected with multiple reporter transcription units (MRTUs) in 6-well plates using FuGene 6 reagent (Roche; 3 ml FuGene/1 mg DNA). […] A major difference between the CIS and TRANS system is that in CIS activities of endogenous TFs are measured, whereas the TRANS assay evaluates changes in activities of exogenous, chimeric NR-Gal4 proteins. […]"}, "[4]": {"test": "Tanguay_ZF_120hpf_BRAI_legacy: (Legacy) Oregon State University Tanguay Lab 120 Hour Post-fertilization zebrafish Assay for Brain Malformation (AID 2283641)", "method_in_brief": "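Read-out: binary brain morphology call at 120 hpf (brightfield), fitted in gain-of-signal direction vs DMSO. Wild-type Tropical 5D embryos, static exposure, 28C, 0.64% DMSO final; 5uM trimethyltin chloride as positive control.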"}}, "note": "All entries are inconclusive by the source's own rule. Clear calls are listed elsewhere. How the source made its calls: active means hit-call score of the fitted dose curve at least 0.9, where 1 is the maximum; inconclusive means response in the unintended direction; inactive means score below 0.9."}
{"smiles": "Cc1cc([N+](=O)[O-])cc([N+](=O)[O-])c1O", "values": [{"measurement": "AC50", "setting": "[1]", "result": "inconclusive: 24.3 µM"}]}
{"smiles": "N#CSc1ccc([N+](=O)[O-])cc1[N+](=O)[O-]", "values": [{"measurement": "AC50", "setting": "[2]", "result": "inconclusive: 20.1 µM"}]}
{"smiles": "O=[N+]([O-])c1cccc([N+](=O)[O-])c1", "values": [{"measurement": "AC50", "setting": "[3]", "result": "inconclusive: 104 µM"}]}
{"smiles": "O=C1C2CC=CCC2C(=O)N1SC(Cl)(Cl)C(Cl)Cl", "note": "(centres undefined)", "values": [{"measurement": "AC50", "setting": "[4]", "result": "inconclusive: 13.9 µM"}]}
